Laboratory results taken from article PMC10191625.
Results are given in words; binding and its absence hold for the method and conditions named. Binding seen in cells or lysates may run through a third protein. Where a sequence is shown, tags or fusion partners need not be part of it.

Sequences of proteins named here, by UniProt entry; tags and fusion partners are left off. A change or cut given only in a name is not applied to a line headed by its entry.
UniProt Q01371: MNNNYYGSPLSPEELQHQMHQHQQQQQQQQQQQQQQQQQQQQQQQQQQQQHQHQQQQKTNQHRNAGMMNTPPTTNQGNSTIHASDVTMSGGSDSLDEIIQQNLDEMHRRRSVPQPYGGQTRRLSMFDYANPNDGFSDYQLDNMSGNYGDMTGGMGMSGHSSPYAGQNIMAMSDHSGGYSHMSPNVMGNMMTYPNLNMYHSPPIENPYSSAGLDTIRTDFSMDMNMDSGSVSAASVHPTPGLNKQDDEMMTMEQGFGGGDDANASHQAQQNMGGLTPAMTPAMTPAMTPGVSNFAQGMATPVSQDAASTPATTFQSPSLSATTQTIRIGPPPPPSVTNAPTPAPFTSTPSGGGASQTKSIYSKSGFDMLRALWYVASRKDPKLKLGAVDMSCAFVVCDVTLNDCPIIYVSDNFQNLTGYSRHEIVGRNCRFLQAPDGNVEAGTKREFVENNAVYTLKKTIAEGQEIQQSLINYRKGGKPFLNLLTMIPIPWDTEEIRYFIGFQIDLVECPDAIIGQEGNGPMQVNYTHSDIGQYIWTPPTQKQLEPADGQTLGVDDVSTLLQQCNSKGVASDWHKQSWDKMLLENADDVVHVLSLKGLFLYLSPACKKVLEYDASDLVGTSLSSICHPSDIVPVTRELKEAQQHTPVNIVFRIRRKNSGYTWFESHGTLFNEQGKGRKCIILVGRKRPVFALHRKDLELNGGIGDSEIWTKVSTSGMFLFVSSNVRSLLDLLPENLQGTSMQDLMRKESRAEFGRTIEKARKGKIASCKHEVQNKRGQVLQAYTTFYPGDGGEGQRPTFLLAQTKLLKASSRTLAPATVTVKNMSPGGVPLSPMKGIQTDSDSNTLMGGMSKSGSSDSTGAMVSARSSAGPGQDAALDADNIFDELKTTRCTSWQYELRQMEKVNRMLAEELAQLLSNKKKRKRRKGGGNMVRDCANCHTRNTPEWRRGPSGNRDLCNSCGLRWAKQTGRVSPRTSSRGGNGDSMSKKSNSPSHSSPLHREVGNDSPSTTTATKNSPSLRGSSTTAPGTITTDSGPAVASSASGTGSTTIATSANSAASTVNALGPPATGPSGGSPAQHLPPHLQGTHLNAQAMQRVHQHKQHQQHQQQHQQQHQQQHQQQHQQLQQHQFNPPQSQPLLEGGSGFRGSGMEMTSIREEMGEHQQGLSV

Biological target: T1, Myc.CPC-1 (Neurospora crassa) (UniProt P11115)
T1 sequence: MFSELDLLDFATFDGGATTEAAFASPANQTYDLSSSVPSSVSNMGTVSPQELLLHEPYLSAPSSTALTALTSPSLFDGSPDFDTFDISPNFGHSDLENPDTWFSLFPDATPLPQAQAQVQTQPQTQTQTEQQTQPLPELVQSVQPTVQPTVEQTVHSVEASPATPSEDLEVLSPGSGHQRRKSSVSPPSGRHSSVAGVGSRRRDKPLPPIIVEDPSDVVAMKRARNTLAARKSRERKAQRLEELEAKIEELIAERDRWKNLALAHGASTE
Assay: co-IP; Myc-tagged protein expressed in the WT strain; immunoprecipitation with Myc antibody, GammaBind G Sepharose, 2 mg protein extract; cultures in constant light; blots for endogenous WC-1 and WC-2

White Collar complex (WC-1 and WC-2) (from UniProt Q01371 1-1167; P78714 1-530)
binding: no binding
